This is one part of the list.
What follows are compounds tested on T1, CTL2-GFP (C. trachomatis L2/434/Bu, GFP-expressing). Settings: bulk GFP, single well; 28.5 h, 10 µM; inhibitor.
T1 construct: L2/434/Bu, GFP-expressing
Parameters: species or system HeLa; Intracellular C. trachomatis growth in HeLa cells, bulk GFP fluorescence relative to DMSO

Row | SMILES | % of control remaining
1 | O=C(NCC1(O)CCSC1)c1c[nH]nc1-c1cc2ccccc2o1 (centres unmarked) [CBK306159] | 102.918%
2 | CCOC(=O)N1CCC(NC(=O)c2ccc(Nc3cncc(-c4ccc(O)cc4)n3)cc2)CC1 [CBK115694] | 117.058%
3 | NC(=O)OC(c1ccccc1[N+](=O)[O-])P(=O)(c1ccccc1)c1ccccc1 (centres unmarked) [CBK261383] | 106.894%
4 | Nc1nnc(SCC(=O)c2ccc3ccccc3c2)s1 [CBK266120] | 174.455%
5 | COCC(C)NC(=O)C1CCCN(S(=O)(=O)c2ccc(OC)c(C)c2)C1 (centres unmarked) [CBK270242] | 142.412%
6 | Cn1nccc1C(=O)C1CCN(C(=O)c2cccc(F)c2)CC1 [CBK284426] | 117.481%
7 | O=C(CCc1nc(=O)c2c3c(sc2[nH]1)CCC3)N1CCCCCC1 [CBK306388] | 106.828%
8 | N#Cc1c(Oc2cccc3cccnc23)cccc1C(F)(F)F [CBK002728] | 107.895%
9 | CC(C)(CO)Cn1c(=O)[nH]c2ncc(-c3ccc(F)c(Cl)c3)nc21 [CBK064737] | 119.851%
10 | CS(=O)(=O)N1CCN(CC(O)Cn2c3ccc(Cl)cc3c3cc(Cl)ccc32)CC1 (centres unmarked) [CBK264381] | 114.427%
11 | O=C(CSC1c2ccccc2Oc2ccccc21)Nc1cccc(C(=O)O)c1 [CBK266566] | 143.639%
12 | COc1cc(-c2nccnc2NCCc2c[nH]c3ccccc23)cc(OC)c1OC [CBK038015] | 217.485%
13 | COc1ccc(CCNC(=O)[C@@H]2Cc3c([nH]c4ccccc34)[C@]3(CCN(Cc4ccccc4)C3)N2)cc1OC [CBK062620] | 66.4287%
14 | COc1ccc(C(C)C)cc1-c1cncc(N2CCC(C(=O)O)CC2)n1 [CBK037900] | 102.347%
15 | Cn1ncc2c(=O)n(Cc3noc(-c4ccco4)n3)cnc21 [CBK305053] | 115.003%
16 | COc1ccc(S(=O)(=O)n2ccn(-c3ccc(Oc4ccccc4)cc3)c2=O)cc1OC [CBK106649] | 100%
17 | COc1cccc(Cc2cccc(C3CCN(C(=O)Cc4c[nH]c5ccccc45)CC3)n2)c1 [CBK286145] | 111.239%
18 | CS(=O)(=O)N1CCN(c2ccc(NC(=O)c3ccc(-c4cccc([N+](=O)[O-])c4)o3)cc2)CC1 [CBK268602] | 145.694%
19 | COc1ccc2[nH]c3c(c2c1)CCN(C=O)C31CCN(Cc2cccc(Cl)c2)C1 (centres unmarked) [CBK040376] | 96.649%
20 | Cc1cc(C)n(-c2ccc(CN3C(=O)NC4(CCCC4)C3=O)cc2)n1 [CBK305796] | 136.426%

Two entries picked at random from the list so far:
Row | SMILES | % of control remaining
18 | CS(=O)(=O)N1CCN(c2ccc(NC(=O)c3ccc(-c4cccc([N+](=O)[O-])c4)o3)cc2)CC1 [CBK268602] | 145.694%
13 | COc1ccc(CCNC(=O)[C@@H]2Cc3c([nH]c4ccccc34)[C@]3(CCN(Cc4ccccc4)C3)N2)cc1OC [CBK062620] | 66.4287%

Source: publication PMC12040169 (PLOS Biology, 2025)
